Assay results as given in PubChem BioAssay AID743255 (National Center for Advancing Translational Sciences (NCATS), 2014).
Screen size: about 390,000 compounds; about 910 (0.23%) were called active. The inconclusive results got no clear call from the source; some entries with a clear call stand among them for comparison. The call rests on the fitted dose curve; in most records, active means well fitted inhibition curve with a large enough effect; inconclusive means small, poorly fitted or top-dose-only effect; inactive means no such curve, though single readings can be large or run the other way. Where the call is inconclusive, the potency comes from a doubtful curve fit.

The chains behind the UniProt entries cited, without tags or fusion partners. Where a name states a change or a piece, a line headed by the entry shows the natural chain unless it says otherwise.
UniProt O94782: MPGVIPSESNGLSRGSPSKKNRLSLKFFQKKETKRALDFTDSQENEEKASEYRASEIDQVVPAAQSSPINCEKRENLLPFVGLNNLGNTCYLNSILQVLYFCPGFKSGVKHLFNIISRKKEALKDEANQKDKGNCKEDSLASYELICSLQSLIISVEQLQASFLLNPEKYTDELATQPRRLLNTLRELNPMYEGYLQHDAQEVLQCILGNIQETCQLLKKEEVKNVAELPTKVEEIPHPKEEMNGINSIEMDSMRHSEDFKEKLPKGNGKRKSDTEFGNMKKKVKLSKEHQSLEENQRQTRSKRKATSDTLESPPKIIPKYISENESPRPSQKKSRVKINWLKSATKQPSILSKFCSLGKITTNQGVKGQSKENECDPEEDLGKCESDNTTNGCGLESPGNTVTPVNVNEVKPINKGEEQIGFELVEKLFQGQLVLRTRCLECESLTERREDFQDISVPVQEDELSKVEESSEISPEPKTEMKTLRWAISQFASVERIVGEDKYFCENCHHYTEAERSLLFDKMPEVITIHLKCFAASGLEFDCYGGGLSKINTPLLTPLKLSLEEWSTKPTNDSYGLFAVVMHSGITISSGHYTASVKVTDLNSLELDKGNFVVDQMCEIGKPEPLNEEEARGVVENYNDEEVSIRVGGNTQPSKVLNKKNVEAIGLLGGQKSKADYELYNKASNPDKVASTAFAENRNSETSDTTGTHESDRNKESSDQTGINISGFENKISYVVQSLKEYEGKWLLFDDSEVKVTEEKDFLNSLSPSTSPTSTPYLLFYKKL

biological target: Ubiquitin carboxyl-terminal hydrolase 1 (Homo sapiens) (UniProt O94782); experiment: Inhibitors of USP1/UAF1: Primary Screen; conditions: recombinant USP1/UAF1, Ub-Rhodamine cleavage fluorescence; series mostly up to 57.1 µM; further: nearly all actives have a fitted effect of over 60% in size
Outline: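 USP1/UAF1 complex at 1 nM was preincubated with compound for 15 min at room temperature, then Ub-Rho substrate (150nM final) was added. Fluorescence (480/540 nm) was read kinetically, 6 reads every 60 seconds.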
Potency means the concentration at half of the fitted maximal effect.

| Structure (SMILES) | Potency |
| --- | --- |
| C=CCN1C(=O)/C(=C\c2ccc(N3CCOCC3)o2)C(=O)NC1=S | inconclusive: 28.2 µM [inhibitor, partial curve] |
| O=C(c1cc(-c2cccc(Cl)c2)on1)N1CCOCC1 | inconclusive: 25.1 µM [inhibitor, single point] |
| Nc1cc2nc3ccccc3nc2cc1N | inactive |
| N#CSCC(=O)N1c2ccccc2CCc2ccccc21 | inactive |
| COc1cccc(N2C(=O)NC(=O)/C(=C\c3ccc([N+](=O)[O-])s3)C2=O)c1 | inconclusive: 25.1 µM [inhibitor, partial curve] |
| C[C@]12CCC3C(CC[C@H]4C[C@@H](O)CC[C@]34C)C1C[C@@H](O)[C@@H]2O (stereo not given in full) | inconclusive: 7.94 µM [inhibitor, partial curve, poor fit] |
| Cc1ccc(NC(=O)Nc2cc3c(cc2N2CCCCC2)n(C)c(=O)n3C)cc1Cl | inconclusive: 8.91 µM [inhibitor, partial curve] |
| CN1C[C@@H]2[C@@H]3C(=O)N(Cc4ccccc4)C(=O)[C@@H]3[C@](Cc3ccccc3)(C1=O)N2C(=O)c1ccc(F)cc1 | inconclusive: 63.1 µM [inhibitor, partial curve, poor fit] |
| Cc1ccc(C2C(=O)NC(=O)NC2=O)cc1 | inconclusive: 1.78 µM [inhibitor, partial curve] |
| CCN(CC)c1ccc(C=C2C(=O)N(C)C(=S)N(C)C2=O)o1 | inactive |
| Cc1cccc(-n2nc(C)c(C(=O)N3CCN(c4ccccc4)CC3)c2-n2cccc2)c1 | inconclusive: 31.6 µM [inhibitor, partial curve] |
| N#CC(C#N)=C(C#N)c1ccc(Nc2ccccc2)cc1 | inactive |
| CCN1CCN(S(=O)(=O)c2ccc(Cl)c(C(=O)Nc3ccc(C(=O)N(CC)CC)cc3)c2)CC1 | inconclusive: 35.5 µM [inhibitor, partial curve, poor fit] |
| c1ccc2c3c([nH]c2c1)CNCC3 | inconclusive: 112 µM [inhibitor, partial curve, poor fit] |
| O=c1[nH]c(=O)n(-c2ccccc2)c(O)c1/C=C/C=Nc1ccccc1 | inconclusive: 20 µM [inhibitor, partial curve] |
| COC(=O)C1=C(c2cccc(OCc3ccccc3)c2)C[C@@H]2CC[C@H]1N2C(=O)NCc1ccc(C(F)(F)F)cc1 | inconclusive: 11.2 µM [inhibitor, partial curve, poor fit] |
| CCCCCCCCCCCCCCCC[n+]1ccccc1 | inconclusive: 39.8 µM [inhibitor, partial curve] |
| Cc1ccc2c(c1)NP(=S)(Oc1ccccc1)N2 (stereo not given) | inactive |
| O=C(Nc1ccc(F)c([N+](=O)[O-])c1)c1cccn(Cc2ccccc2)c1=O | inactive |
| O=C(CN1CC=C(c2ccccc2)CC1)Nc1cc(Cl)ccc1Cl | inconclusive: 39.8 µM [inhibitor, partial curve] |

| Structure (SMILES) | Potency |
| --- | --- |
| C[C@H](CO)N1C[C@H](C)[C@@H](CN(C)C(=O)Nc2ccc(C(F)(F)F)cc2)Oc2c(NS(=O)(=O)c3cccs3)cccc2C1=O | inconclusive: 35.5 µM [inhibitor, partial curve] |
| O=C1OC(=O)C2C1[C@@H]1CC[C@H]2O1 (stereo not given in full) | inconclusive: 35.5 µM [inhibitor, single point] |
| CCOP(=S)(OCC)Oc1nc(Cl)c(Cl)cc1Cl | inactive |
| OCC[n+]1c2ccccc2nc2ccc(N3CCOCC3)cc21 | inconclusive: 3.16 µM [inhibitor, full curve, poor fit] |
| COc1ccc(N2CCN(Cc3nc4ccccc4[nH]3)CC2)cc1 | inconclusive: 1.26 µM [inhibitor, full curve, poor fit] |
| COc1cc(OC)c(OC)cc1/C=C1/C(=O)NC(=O)N(Cc2ccccc2)C1=O | inactive |
| COCCCn1c(N)c(C(=O)OCCOC)c2nc3ccccc3nc21 | inactive |
| COCCNC(=O)c1c(NC(=O)c2ccc(Br)o2)n(Cc2ccccc2)c2nc3ccccc3nc12 | inconclusive: 39.8 µM [inhibitor, partial curve, poor fit] |
| O=c1cc(-c2ccc(O)c(O)c2)oc2cc(O)cc(O)c12 | inconclusive: 44.7 µM [inhibitor, partial curve, poor fit] |
| CC(C)(O)/C=C/C(=O)[C@](C)(O)C1[C@H](O)C[C@@]2(C)C3CC=C4C(C=C(O[C@@H]5O[C@H](CO)[C@@H](O)[C@H](O)[C@H]5O)C(=O)C4(C)C)[C@]3(C)C(=O)C[C@]12C (stereo not given in full) | inconclusive: 79.4 µM [inhibitor, partial curve, poor fit] |
| Cc1ccc(N2C(=O)N(CC(=O)N3CCc4ccccc43)C(=O)C2C)cc1 (stereo not given) | inconclusive: 0.126 µM [inhibitor, full curve, poor fit] |
| COc1cc2c(cc1OC)-c1c(OC)c(OC)cc3c1C(C2)N(C)CC3 (stereo not given) | inconclusive: 8.91 µM [inhibitor, partial curve] |
| CC(Cc1ccc(O)cc1)NCC(O)c1ccc(O)c(O)c1 (stereo not given) | inconclusive: 15.8 µM [inhibitor, partial curve] |
| CCC(C)n1c(O)c(C=NCC2CCCO2)c(=O)[nH]c1=S (stereo not given) | inconclusive: 3.98 µM [inhibitor, partial curve] |
| O=C1NC(=O)C(=Cc2coc3ccc(O)cc3c2=O)C(=O)N1 | inactive |
| C[C@]12CC[C@@H](O)CC1=CCC1C2CC[C@@]2(C)C1CC[C@@H]2N (stereo not given in full) | inconclusive: 50.1 µM [inhibitor, partial curve, poor fit] |
| O=c1[nH]c(=S)[nH]c(O)c1/C=C1/C=c2ccccc2=N1 | inconclusive: 31.6 µM [inhibitor, partial curve] |
| CCCC[C@H](CN(N=O)[C@@H](Cc1ccccc1)CN(C)N=O)N(CCc1ccccc1)N=O | inconclusive: 44.7 µM [inhibitor, partial curve] |
| N#CC(C#N)=NNc1ccc(-n2ccc(C(F)(F)F)n2)cc1 | inconclusive: 70.8 µM [inhibitor, partial curve, poor fit] |
| O=C1NC(=O)N(c2cccc(Cl)c2)C(=O)/C1=C\c1ccc(Sc2nc3ccccc3[nH]2)o1 | inactive |

Rewritten as tab-separated lines: two of the compounds above
Structure (SMILES)	Potency
COCCNC(=O)c1c(NC(=O)c2ccc(Br)o2)n(Cc2ccccc2)c2nc3ccccc3nc12	inconclusive: 39.8 µM [inhibitor, partial curve, poor fit]
O=c1[nH]c(=S)[nH]c(O)c1/C=C1/C=c2ccccc2=N1	inconclusive: 31.6 µM [inhibitor, partial curve]
